PubChem BioAssay AID686937, Drosophila RNAi Screening Center | 2013
The deposit covers about 23,000 reagents; below is a random part of those that have a named target and a result. 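Reduced-secretion tags in replicate 1 do not always agree with the z-scores; no criterion for assigning the tags was given.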 Reagents against one gene are numbered here. Names joined by + are all predicted targets of the reagent. The record does not give: the amount of reagent.

Screen: 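Genes in the fly needed for secretion of protein constitutively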 (primary screen)
Cell system: Drosophila S2 cells expressing secreted horseradish peroxidase
Reagents: long dsRNA against Drosophila genes
Timing: about 5.5 days (5 days dsRNA, then 12 h reporter induction)
Challenge: reporter expression induced after 5 days of dsRNA, read 12 h later; inducer not stated
Read-out: 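Chemiluminescent measurement of peroxidase in the medium 12 h after reporter induction, following 5 days of dsRNA, given as a z-score per plate; higher means more secretion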
Scale: z-score: higher = more reporter secreted into medium

gene | reagent | z-score, replicate 1 | z-score, replicate 2 | z-score, replicate 3 | z-score, replicate 4 | phenotype, replicate 1
CG31345 | 1 | -0.33 | 0.23 | – | – | –
CG31345 | 2 | -0.53 | 0.19 | – | – | –
CG13856 | 1 | 0.12 | 0.24 | – | – | –
OtopLc | 1 | 0.28 | 0.36 | – | – | –
OtopLc | 2 | -2.33 | -1.91 | – | – | reduced secretion
OtopLc | 3 | 0.14 | 0.25 | – | – | –
Naa60 | 1 | 0.36 | 0.14 | – | – | –
Arl6IP1 | 1 | 0.11 | -0.06 | – | – | –
sff | 1 | 0.33 | 0.41 | – | – | –
aft | 1 | 0.22 | 0.1 | – | – | –
gb | 1 | 0.33 | 0.58 | – | – | –
Bro | 1 | 0.17 | 0.3 | – | – | –
RpL26 | 1 | -4.55 | -2.78 | – | – | reduced secretion
CG3437 | 1 | 0.09 | 0.26 | – | – | –
CG9992 | 1 | 0.35 | -0.01 | – | – | –
CG9992 | 2 | -0.42 | -0.37 | – | – | –
Moca-cyp | 1 | 0.41 | 0.49 | – | – | –
CG7387 | 1 | 0.49 | 0.48 | – | – | –
CG10232 | 1 | 0.32 | 0.42 | – | – | –
CG2972 | 1 | 0.38 | 0.3 | – | – | –
spt4 | 1 | 0.15 | 0.4 | – | – | –
CG4367 | 1 | 0.27 | 0.31 | – | – | –
Adh + Adhr | 1 | 0.41 | 0.24 | – | – | –
Adh + Adhr | 2 | 0.27 | 0.36 | – | – | –
CG34015 | 1 | 0.43 | -0.8 | – | – | –
RabX4 | 1 | 0.36 | 0.21 | – | – | –
CG11041 | 1 | 0.31 | 0.09 | – | – | –
Rs1 | 1 | 0.3 | 0.24 | – | – | –
CG10311 | 1 | 0.21 | 0.48 | – | – | –
Ca-alpha1D | 1 | 0.24 | 0.25 | – | – | –
CG1677 | 1 | -0.28 | -0.43 | – | – | –

Part of the list above, reformatted:
CG13856 — z-score, replicate 1 = 0.12; z-score, replicate 2 = 0.24
OtopLc #1 — z-score, replicate 1 = 0.28; z-score, replicate 2 = 0.36
OtopLc #2 — z-score, replicate 1 = -2.33; z-score, replicate 2 = -1.91; phenotype, replicate 1 = reduced secretion
OtopLc #3 — z-score, replicate 1 = 0.14; z-score, replicate 2 = 0.25
Naa60 — z-score, replicate 1 = 0.36; z-score, replicate 2 = 0.14
Arl6IP1 — z-score, replicate 1 = 0.11; z-score, replicate 2 = -0.06
sff — z-score, replicate 1 = 0.33; z-score, replicate 2 = 0.41
aft — z-score, replicate 1 = 0.22; z-score, replicate 2 = 0.1
gb — z-score, replicate 1 = 0.33; z-score, replicate 2 = 0.58
Bro — z-score, replicate 1 = 0.17; z-score, replicate 2 = 0.3
RpL26 — z-score, replicate 1 = -4.55; z-score, replicate 2 = -2.78; phenotype, replicate 1 = reduced secretion
CG3437 — z-score, replicate 1 = 0.09; z-score, replicate 2 = 0.26
CG9992 #1 — z-score, replicate 1 = 0.35; z-score, replicate 2 = -0.01

More results follow:
gene | reagent | z-score, replicate 1 | z-score, replicate 2 | z-score, replicate 3 | z-score, replicate 4 | phenotype, replicate 1
CheA7a | 1 | 0.39 | 0.65 | – | – | –
nmdyn-D7 | 1 | 0.29 | -0.11 | – | – | –
CG7289 | 1 | -0.07 | 0.12 | – | – | –
NimC1 | 1 | 0 | 0.2 | – | – | –
Krn | 1 | 0.46 | 0.47 | – | – | –
CG1529 | 1 | 0.58 | -0.1 | 0.43 | -0.02 | –
CG10600 | 1 | 0.26 | 0.28 | – | – | –
Grx5 | 1 | 0.44 | -0.18 | – | – | –
CG4250 | 1 | 0.5 | 0.44 | – | – | –
pll | 1 | -0.25 | 0.23 | – | – | –
Wnk | 1 | -3.38 | -2.34 | – | – | reduced secretion
CG18518 | 1 | -0.42 | 0.19 | – | – | –
CG12782 | 1 | 0.32 | 0.33 | – | – | –
CG43138 | 1 | 0.5 | 0.46 | – | – | –
CG8243 | 1 | 0.35 | 0.53 | – | – | –
CG8243 | 2 | -0.44 | -0.17 | – | – | –
CtsL4 | 1 | 0.18 | 0.16 | – | – | –
ACC | 1 | -6.05 | -6.5 | – | – | reduced secretion
ACC | 2 | -5.31 | -5.22 | – | – | reduced secretion
CG32192 | 1 | -0.67 | -0.41 | – | – | reduced secretion
Dhc36C | 1 | 0.21 | 0.33 | – | – | –
CG4286 | 1 | -0.11 | 0.09 | – | – | –
U4-U6-60K | 1 | -0.51 | -0.37 | – | – | –
Poxm | 1 | 0.54 | 0.1 | 0.67 | 0.41 | –
Poxm | 2 | 0.21 | -0.45 | – | – | –
grk | 1 | 0.4 | 0.23 | – | – | –
TTLL6A | 1 | 0.34 | 0.22 | – | – | –
CG4213 | 1 | 0.23 | 0.28 | – | – | –
cmb | 1 | 0.19 | 0.15 | – | – | –
CG33937 (retired record) | 1 | 0.31 | 0.35 | – | – | –
mfr | 1 | 0.2 | 0.27 | – | – | –
smg | 1 | 0.03 | 0.09 | – | – | –
Srp72 | 1 | -0.55 | -0.67 | – | – | –
Tsen34 + Trl | 1 | 0.14 | 0.2 | – | – | –
bt | 1 | 0.27 | 0.14 | – | – | –
bt | 2 | 0.13 | 0.19 | – | – | –
CG12229 | 1 | 0.12 | 0.16 | – | – | –
CYTB (retired record) | 1 | 0.3 | -0.25 | – | – | –
CG11247 | 1 | -4.29 | 0.35 | 0.36 | -1.18 | –
CG11247 | 2 | 0.56 | 0.23 | – | – | –
QIL1 | 1 | -2.09 | -0.64 | – | – | –
CG10459 | 1 | 0.33 | 0.39 | – | – | –
CG10459 | 2 | 0.72 | 0.2 | – | – | –
Map205 | 1 | 0.05 | -0.48 | – | – | –
mRF1 | 1 | 0.32 | 0.26 | – | – | –
CG13930 | 1 | 0.42 | 0.28 | – | – | –
Prosbeta5R1 | 1 | -0.16 | 0.4 | – | – | –
7SLRNA:CR42652 + 7SLRNA:CR32864 | 1 | 0.42 | 0.4 | – | – | –
Ilp1 | 1 | 0.46 | 0.42 | – | – | –
ddbt | 1 | 0.66 | 0.23 | – | – | –
TfIIA-S | 1 | -0.77 | -0.48 | – | – | –
